{"source": "PubChem BioAssay AID1259405 (NCATS, 2018)", "purpose": "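Silenced genes that increase secreted GFP made by CHO cells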 (primary screen)", "system": "Chinese hamster CHO-K1 ovary cells with stable secreted eGFP expression", "reagent": "single siRNA against mouse genes, 0.8 pmol siRNA per well (2 µl of 400 nM stock)", "duration": "3 days", "read-out": "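Percent of the per-plate non-targeting control median for intracellular GFP per well by laser scanning cytometry and for cell viability by ATP luminescence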", "direction": "GFP, % of control: higher = more GFP per well, higher productivity; viability (ATP), % of control: higher = more viable cells (more ATP)", "rule for the call": "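a knock-down is called active if GFP reaches 120% or more of non-targeting control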", "note": "Here is a random part of about 50,000 reagents tested. Of all reagents, about 4,000 (8%) got an active call. 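Mouse siRNA library applied to hamster cells; one well for each siRNA.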 Reagents against one gene are numbered here."}
{"gene symbol": "Prelid1", "reagent no.": 1, "GFP, % of control": 55.5, "viability (ATP), % of control": 58.8, "Call": "inactive"}
{"gene symbol": "Prelid1", "reagent no.": 2, "GFP, % of control": 46.8, "viability (ATP), % of control": 82.5, "Call": "inactive"}
{"gene symbol": "Prelid1", "reagent no.": 3, "GFP, % of control": 97.6, "viability (ATP), % of control": 107, "Call": "inactive"}
{"gene symbol": "Musk", "reagent no.": 1, "GFP, % of control": 110, "viability (ATP), % of control": 89.1, "Call": "inactive"}
{"gene symbol": "Ube2e3", "reagent no.": 1, "GFP, % of control": 124, "viability (ATP), % of control": 84.5, "Call": "active"}
{"gene symbol": "Ube2e3", "reagent no.": 2, "GFP, % of control": 64.6, "viability (ATP), % of control": 54.4, "Call": "inactive"}
{"gene symbol": "Ube2e3", "reagent no.": 3, "GFP, % of control": 66.7, "viability (ATP), % of control": 73.6, "Call": "inactive"}
{"gene symbol": "Kirrel2", "reagent no.": 1, "GFP, % of control": 51.1, "viability (ATP), % of control": 51.1, "Call": "inactive"}
{"gene symbol": "Kirrel2", "reagent no.": 2, "GFP, % of control": 62, "viability (ATP), % of control": 35.4, "Call": "inactive"}
{"gene symbol": "Kirrel2", "reagent no.": 3, "GFP, % of control": 74.9, "viability (ATP), % of control": 45.3, "Call": "inactive"}
{"gene symbol": "Gm5458", "reagent no.": 1, "GFP, % of control": 99.6, "viability (ATP), % of control": 105, "Call": "inactive"}
{"gene symbol": "Gm5458", "reagent no.": 2, "GFP, % of control": 84.1, "viability (ATP), % of control": 67.3, "Call": "inactive"}
{"gene symbol": "Gm5458", "reagent no.": 3, "GFP, % of control": 33.9, "viability (ATP), % of control": 61, "Call": "inactive"}
{"gene symbol": "Lama2", "reagent no.": 1, "GFP, % of control": 101, "viability (ATP), % of control": 109, "Call": "inactive"}
{"gene symbol": "Lama2", "reagent no.": 2, "GFP, % of control": 81.8, "viability (ATP), % of control": 82.4, "Call": "inactive"}
{"gene symbol": "L3mbtl2", "reagent no.": 1, "GFP, % of control": 90.2, "viability (ATP), % of control": 59.4, "Call": "inactive"}
{"gene symbol": "L3mbtl2", "reagent no.": 2, "GFP, % of control": 82.7, "viability (ATP), % of control": 38.3, "Call": "inactive"}
{"gene symbol": "L3mbtl2", "reagent no.": 3, "GFP, % of control": 70.4, "viability (ATP), % of control": 67.4, "Call": "inactive"}
{"gene symbol": "Tfcp2", "reagent no.": 1, "GFP, % of control": 72.1, "viability (ATP), % of control": 80.8, "Call": "inactive"}
{"gene symbol": "Tfcp2", "reagent no.": 2, "GFP, % of control": 38.9, "viability (ATP), % of control": 59.8, "Call": "inactive"}
{"gene symbol": "Tfcp2", "reagent no.": 3, "GFP, % of control": 72.9, "viability (ATP), % of control": 91.3, "Call": "inactive"}
{"gene symbol": "Grem1", "reagent no.": 1, "GFP, % of control": 90.9, "viability (ATP), % of control": 83.6, "Call": "inactive"}
{"gene symbol": "Grem1", "reagent no.": 2, "GFP, % of control": 111, "viability (ATP), % of control": 96.4, "Call": "inactive"}
{"gene symbol": "Grem1", "reagent no.": 3, "GFP, % of control": 134, "viability (ATP), % of control": 68.8, "Call": "active"}
{"gene symbol": "Rbm6", "reagent no.": 1, "GFP, % of control": 124, "viability (ATP), % of control": 140, "Call": "active"}
{"gene symbol": "Rbm6", "reagent no.": 2, "GFP, % of control": 65.3, "viability (ATP), % of control": 85.7, "Call": "inactive"}
{"gene symbol": "Cbx7", "reagent no.": 1, "GFP, % of control": 68.8, "viability (ATP), % of control": 76.5, "Call": "inactive"}
{"gene symbol": "Cbx7", "reagent no.": 2, "GFP, % of control": 84.3, "viability (ATP), % of control": 74.9, "Call": "inactive"}
{"gene symbol": "Cbx7", "reagent no.": 3, "GFP, % of control": 70.2, "viability (ATP), % of control": 84.8, "Call": "inactive"}
{"gene symbol": "Rpusd2", "reagent no.": 1, "GFP, % of control": 88.3, "viability (ATP), % of control": 94.9, "Call": "inactive"}
{"gene symbol": "Rpusd2", "reagent no.": 2, "GFP, % of control": 131, "viability (ATP), % of control": 111, "Call": "active"}
{"gene symbol": "Rpusd2", "reagent no.": 3, "GFP, % of control": 70.5, "viability (ATP), % of control": 73.6, "Call": "inactive"}
{"gene symbol": "Hmox1", "reagent no.": 1, "GFP, % of control": 78.7, "viability (ATP), % of control": 73.8, "Call": "inactive"}
{"gene symbol": "Hmox1", "reagent no.": 2, "GFP, % of control": 49.3, "viability (ATP), % of control": 36.2, "Call": "inactive"}
{"gene symbol": "Hmox1", "reagent no.": 3, "GFP, % of control": 72, "viability (ATP), % of control": 66.9, "Call": "inactive"}
{"gene symbol": "Cd109", "reagent no.": 1, "GFP, % of control": 85.8, "viability (ATP), % of control": 70.8, "Call": "inactive"}
{"gene symbol": "Cd109", "reagent no.": 2, "GFP, % of control": 108, "viability (ATP), % of control": 70.8, "Call": "inactive"}
{"gene symbol": "Cd109", "reagent no.": 3, "GFP, % of control": 117, "viability (ATP), % of control": 134, "Call": "inactive"}
{"gene symbol": "Slc7a4", "reagent no.": 1, "GFP, % of control": 57.3, "viability (ATP), % of control": 53.6, "Call": "inactive"}
{"gene symbol": "Slc7a4", "reagent no.": 2, "GFP, % of control": 45.4, "viability (ATP), % of control": 42, "Call": "inactive"}
{"gene symbol": "Slc7a4", "reagent no.": 3, "GFP, % of control": 79.8, "viability (ATP), % of control": 93.5, "Call": "inactive"}
{"gene symbol": "Il3ra", "reagent no.": 1, "GFP, % of control": 118, "viability (ATP), % of control": 87.5, "Call": "inactive"}
{"gene symbol": "Il3ra", "reagent no.": 2, "GFP, % of control": 92.3, "viability (ATP), % of control": 85.3, "Call": "inactive"}
{"gene symbol": "Il3ra", "reagent no.": 3, "GFP, % of control": 57, "viability (ATP), % of control": 57.7, "Call": "inactive"}
{"gene symbol": "Rbm19", "reagent no.": 1, "GFP, % of control": 99.9, "viability (ATP), % of control": 85.8, "Call": "inactive"}
{"gene symbol": "Rbm19", "reagent no.": 2, "GFP, % of control": 68.8, "viability (ATP), % of control": 76, "Call": "inactive"}
{"gene symbol": "Coq9", "reagent no.": 1, "GFP, % of control": 61.7, "viability (ATP), % of control": 83.9, "Call": "inactive"}
{"gene symbol": "Coq9", "reagent no.": 2, "GFP, % of control": 63.6, "viability (ATP), % of control": 87, "Call": "inactive"}
{"gene symbol": "Uros", "reagent no.": 1, "GFP, % of control": 50.5, "viability (ATP), % of control": 52.6, "Call": "inactive"}
{"gene symbol": "Uros", "reagent no.": 2, "GFP, % of control": 142, "viability (ATP), % of control": 90.3, "Call": "active"}
{"gene symbol": "Uros", "reagent no.": 3, "GFP, % of control": 81.8, "viability (ATP), % of control": 84.2, "Call": "inactive"}
{"gene symbol": "Meis2", "reagent no.": 1, "GFP, % of control": 69.4, "viability (ATP), % of control": 67.3, "Call": "inactive"}
{"gene symbol": "Meis2", "reagent no.": 2, "GFP, % of control": 78.3, "viability (ATP), % of control": 97.1, "Call": "inactive"}
{"gene symbol": "Meis2", "reagent no.": 3, "GFP, % of control": 45.8, "viability (ATP), % of control": 75.1, "Call": "inactive"}

Active calls, among the entries above:
{"gene symbol": "Ube2e3", "reagent no.": 1, "GFP, % of control": 124, "viability (ATP), % of control": 84.5, "Call": "active"}
{"gene symbol": "Grem1", "reagent no.": 3, "GFP, % of control": 134, "viability (ATP), % of control": 68.8, "Call": "active"}
{"gene symbol": "Rbm6", "reagent no.": 1, "GFP, % of control": 124, "viability (ATP), % of control": 140, "Call": "active"}
{"gene symbol": "Rpusd2", "reagent no.": 2, "GFP, % of control": 131, "viability (ATP), % of control": 111, "Call": "active"}
{"gene symbol": "Uros", "reagent no.": 2, "GFP, % of control": 142, "viability (ATP), % of control": 90.3, "Call": "active"}
